Reference: doi:10.1101/2024.10.13.617954
Results are given in words; binding and its absence hold for the method and conditions named. Binding seen in cells or lysates may run through a third protein. Some results given as binding are weak or reduced against the parent protein; the word gives no strength. For some assays here: Sequences can lack the tags named with a protein.

Chains of the proteins cited; added tags and fusions are not shown.
UniProt P92939: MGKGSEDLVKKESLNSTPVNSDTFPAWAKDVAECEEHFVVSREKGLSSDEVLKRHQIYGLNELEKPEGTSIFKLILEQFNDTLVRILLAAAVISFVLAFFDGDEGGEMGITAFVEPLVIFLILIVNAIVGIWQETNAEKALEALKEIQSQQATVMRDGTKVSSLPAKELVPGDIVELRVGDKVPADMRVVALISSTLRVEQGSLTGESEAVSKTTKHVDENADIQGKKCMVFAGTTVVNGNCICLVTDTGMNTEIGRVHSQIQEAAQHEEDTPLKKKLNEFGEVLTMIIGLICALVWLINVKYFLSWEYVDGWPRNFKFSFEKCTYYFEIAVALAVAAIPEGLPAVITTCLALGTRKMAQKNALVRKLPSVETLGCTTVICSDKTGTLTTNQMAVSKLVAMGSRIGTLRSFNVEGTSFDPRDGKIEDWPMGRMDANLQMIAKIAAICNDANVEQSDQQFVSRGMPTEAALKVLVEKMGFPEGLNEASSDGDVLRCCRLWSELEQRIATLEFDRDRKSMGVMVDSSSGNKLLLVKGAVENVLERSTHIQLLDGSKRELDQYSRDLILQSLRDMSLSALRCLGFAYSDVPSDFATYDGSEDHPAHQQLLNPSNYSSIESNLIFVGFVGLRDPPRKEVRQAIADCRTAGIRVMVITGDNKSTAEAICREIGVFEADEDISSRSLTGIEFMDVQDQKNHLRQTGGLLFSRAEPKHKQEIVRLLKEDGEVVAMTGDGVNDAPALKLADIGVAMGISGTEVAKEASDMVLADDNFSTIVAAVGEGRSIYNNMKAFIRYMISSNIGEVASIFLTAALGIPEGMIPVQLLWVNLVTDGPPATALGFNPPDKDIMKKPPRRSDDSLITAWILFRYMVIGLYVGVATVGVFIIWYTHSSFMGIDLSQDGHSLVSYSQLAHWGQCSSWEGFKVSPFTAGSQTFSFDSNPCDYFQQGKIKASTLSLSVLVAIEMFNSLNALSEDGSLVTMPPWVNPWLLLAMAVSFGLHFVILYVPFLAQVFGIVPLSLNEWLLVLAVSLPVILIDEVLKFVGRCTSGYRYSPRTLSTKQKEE

Assays:
[1] = molecular target: ECA1-cYFP (Arabidopsis thaliana) (UniProt P92939); assay: split reporter
[2] = molecular target: ECA1-GFP (Arabidopsis thaliana) (UniProt P92939); assay: FRET or BRET
[3] = molecular target: ECA1-HA (Arabidopsis thaliana) (UniProt P92939); assay: co-IP

Row | Binder | binding [1] | other results
1 | CPK2-nYFP (enzyme, UniProt Q38870 1-646) MGNACVGPNISGNGFLQTVTAAMWRPRIGAEQASSSSHGNGQVSKEAASEPATDQVQNKPPEPITMPSSKTNPETKLKPDLEIQPEEKKEKVLAEETKQKVVPEESKQEVPPEESKREVVVQPESAKPETKSESKPETTKPETTSETKPETKAEPQKPKHMRRVSSAGLRTESVLQRKTENFKEFYSLGRKLGQGQFGTTFLCLEKGTGNEYACKSISKRKLLTDEDVEDVRREIQIMHHLAGHPNVISIKGAYEDVVAVHLVMELCSGGELFDRIIQRGHYTERKAAELARTIVGVLEACHSLGVMHRDLKPENFLFVSREEDSLLKTIDFGLSMFFKPDEVFTDVVGSPYYVAPEVLRKRYGPESDVWSAGVIVYILLSGVPPFWAETEQGIFEQVLHGDLDFSSDPWPSISESAKDLVRKMLVRDPKRRLTAHQVLCHPWVQIDGVAPDKPLDSAVLSRMKQFSAMNKFKKMALRVIAESLSEEEIAGLKQMFKMIDADNSGQITFEELKAGLKRVGANLKESEILDLMQAADVDNSGTIDYKEFIAATLHLNKIEREDHLFAAFSYFDKDESGFITPDELQQACEEFGVEDARIEEMMRDVDQDKDGRIDYNEFVAMMQKGSIMGGPVKMGLENSISISLKH | binds | –
2 | CPK2-RFP (enzyme, UniProt Q38870 1-646) MGNACVGPNISGNGFLQTVTAAMWRPRIGAEQASSSSHGNGQVSKEAASEPATDQVQNKPPEPITMPSSKTNPETKLKPDLEIQPEEKKEKVLAEETKQKVVPEESKQEVPPEESKREVVVQPESAKPETKSESKPETTKPETTSETKPETKAEPQKPKHMRRVSSAGLRTESVLQRKTENFKEFYSLGRKLGQGQFGTTFLCLEKGTGNEYACKSISKRKLLTDEDVEDVRREIQIMHHLAGHPNVISIKGAYEDVVAVHLVMELCSGGELFDRIIQRGHYTERKAAELARTIVGVLEACHSLGVMHRDLKPENFLFVSREEDSLLKTIDFGLSMFFKPDEVFTDVVGSPYYVAPEVLRKRYGPESDVWSAGVIVYILLSGVPPFWAETEQGIFEQVLHGDLDFSSDPWPSISESAKDLVRKMLVRDPKRRLTAHQVLCHPWVQIDGVAPDKPLDSAVLSRMKQFSAMNKFKKMALRVIAESLSEEEIAGLKQMFKMIDADNSGQITFEELKAGLKRVGANLKESEILDLMQAADVDNSGTIDYKEFIAATLHLNKIEREDHLFAAFSYFDKDESGFITPDELQQACEEFGVEDARIEEMMRDVDQDKDGRIDYNEFVAMMQKGSIMGGPVKMGLENSISISLKH | – | binding [2]: binds
3 | CPK12-nYFP (enzyme, UniProt Q42396 1-490) MANKPRTRWVLPYKTKNVEDNYFLGQVLGQGQFGTTFLCTHKQTGQKLACKSIPKRKLLCQEDYDDVLREIQIMHHLSEYPNVVRIESAYEDTKNVHLVMELCEGGELFDRIVKRGHYSEREAAKLIKTIVGVVEACHSLGVVHRDLKPENFLFSSSDEDASLKSTDFGLSVFCTPGEAFSELVGSAYYVAPEVLHKHYGPECDVWSAGVILYILLCGFPPFWAESEIGIFRKILQGKLEFEINPWPSISESAKDLIKKMLESNPKKRLTAHQVLCHPWIVDDKVAPDKPLDCAVVSRLKKFSAMNKLKKMALRVIAERLSEEEIGGLKELFKMIDTDKSGTITFEELKDSMRRVGSELMESEIQELLRAADVDESGTIDYGEFLAATIHLNKLEREENLVAAFSFFDKDASGYITIEELQQAWKEFGINDSNLDEMIKDIDQDNDGQIDYGEFVAMMRKGNGTGGGIGRRTMRNSLNFGTTLPDESMNV | binds | –
4 | CPK32-nYFP (enzyme, UniProt Q6NLQ6 1-538) MGNCCGTAGSLAQNDNKPKKGRKKQNPFSIDYGLHHGGGDGGGRPLKLIVLNDPTGREIESKYTLGRELGRGEFGVTYLCTDKETDDVFACKSILKKKLRTAVDIEDVRREVEIMRHMPEHPNVVTLKETYEDEHAVHLVMELCEGGELFDRIVARGHYTERAAAAVTKTIMEVVQVCHKHGVMHRDLKPENFLFGNKKETAPLKAIDFGLSVFFKPGERFNEIVGSPYYMAPEVLKRNYGPEVDIWSAGVILYILLCGVPPFWAETEQGVAQAIIRSVLDFRRDPWPKVSENAKDLIRKMLDPDQKRRLTAQQVLDHPWLQNAKTAPNVSLGETVRARLKQFTVMNKLKKRALRVIAEHLSDEEASGIREGFQIMDTSQRGKINIDELKIGLQKLGHAIPQDDLQILMDAGDIDRDGYLDCDEFIAISVHLRKMGNDEHLKKAFAFFDQNNNGYIEIEELREALSDELGTSEEVVDAIIRDVDTDKDGRISYEEFVTMMKTGTDWRKASRQYSRERFNSISLKLMQDASLQVNGDTR | binds | –
5 | CPK2-GFP (enzyme, UniProt Q38870 1-646) MGNACVGPNISGNGFLQTVTAAMWRPRIGAEQASSSSHGNGQVSKEAASEPATDQVQNKPPEPITMPSSKTNPETKLKPDLEIQPEEKKEKVLAEETKQKVVPEESKQEVPPEESKREVVVQPESAKPETKSESKPETTKPETTSETKPETKAEPQKPKHMRRVSSAGLRTESVLQRKTENFKEFYSLGRKLGQGQFGTTFLCLEKGTGNEYACKSISKRKLLTDEDVEDVRREIQIMHHLAGHPNVISIKGAYEDVVAVHLVMELCSGGELFDRIIQRGHYTERKAAELARTIVGVLEACHSLGVMHRDLKPENFLFVSREEDSLLKTIDFGLSMFFKPDEVFTDVVGSPYYVAPEVLRKRYGPESDVWSAGVIVYILLSGVPPFWAETEQGIFEQVLHGDLDFSSDPWPSISESAKDLVRKMLVRDPKRRLTAHQVLCHPWVQIDGVAPDKPLDSAVLSRMKQFSAMNKFKKMALRVIAESLSEEEIAGLKQMFKMIDADNSGQITFEELKAGLKRVGANLKESEILDLMQAADVDNSGTIDYKEFIAATLHLNKIEREDHLFAAFSYFDKDESGFITPDELQQACEEFGVEDARIEEMMRDVDQDKDGRIDYNEFVAMMQKGSIMGGPVKMGLENSISISLKH | – | binding [3]: binds
